Measurements reported in PubChem BioAssay AID1259405 (NCATS, 2018)
The whole screen tested about 50,000 reagents; below is a random part of them. In the full data, about 4,000 (8%) were called active. 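Mouse siRNA library applied to hamster cells; one well for each siRNA.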 Entries without a mark were called inactive. Reagents against one gene are numbered here.

- Purpose: 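Knock-downs that lift recombinant protein yield in hamster ovary cells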 (primary screen)
- System: Chinese hamster CHO-K1 ovary cells with stable secreted eGFP expression
- Knock-down reagent: single siRNA against mouse genes, 0.8 pmol siRNA per well (2 µl of 400 nM stock)
- Timing: 3 days
- Measured: 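Percent of the per-plate non-targeting control median for intracellular GFP per well by laser scanning cytometry and for cell viability by ATP luminescence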
- Direction: GFP, % of control: higher = more GFP per well, higher productivity; viability (ATP), % of control: higher = more viable cells (more ATP)
- Call rule: 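a knock-down is called active if GFP reaches 120% or more of non-targeting control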

For Tbc1d22b (TBC1 domain family, member 22B) #1 the deposit lists GFP, % of control 52.6; viability (ATP), % of control 75.1.
Against Tbc1d22b (TBC1 domain family, member 22B) #2, the entry reads GFP, % of control 71.1; viability (ATP), % of control 75.3.
Depletion of Tbc1d22b (TBC1 domain family, member 22B) #3 came out at: GFP, % of control 108; viability (ATP), % of control 59.2.
Per1 (period circadian clock 1) #1 gave GFP, % of control 82.7; viability (ATP), % of control 84.9.
Silencing of Per1 (period circadian clock 1) #2 resulted in: GFP, % of control 64.2; viability (ATP), % of control 88.6.
Against Tmem64 (transmembrane protein 64) #1 the deposit lists GFP, % of control 70.2; viability (ATP), % of control 71.3.
Tmem64 (transmembrane protein 64) #2 gave GFP, % of control 56.7; viability (ATP), % of control 51.9.
Against Tmem64 (transmembrane protein 64) #3 the deposit lists GFP, % of control 69.9; viability (ATP), % of control 73.1.
For Arl4a (ADP-ribosylation factor-like 4A) #1, the entry reads GFP, % of control 30.8; viability (ATP), % of control 44.
Silencing of Arl4a (ADP-ribosylation factor-like 4A) #2 came out at: GFP, % of control 72.3; viability (ATP), % of control 89.
Against Arl4a (ADP-ribosylation factor-like 4A) #3 the deposit lists GFP, % of control 62.4; viability (ATP), % of control 50.9.
After knock-down of B4galnt4 (beta-1,4-N-acetyl-galactosaminyl transferase 4) #1, the record shows GFP, % of control 56.9; viability (ATP), % of control 48.8.
B4galnt4 (beta-1,4-N-acetyl-galactosaminyl transferase 4) #2 scored GFP, % of control 82.8; viability (ATP), % of control 83.5.
B4galnt4 (beta-1,4-N-acetyl-galactosaminyl transferase 4) #3 gave GFP, % of control 64.2; viability (ATP), % of control 40.4.
Or4k52 (olfactory receptor family 4 subfamily K member 52) #1 scored GFP, % of control 61.5; viability (ATP), % of control 50.9.
After knock-down of Or4k52 (olfactory receptor family 4 subfamily K member 52) #2 the results were GFP, % of control 44.4; viability (ATP), % of control 64.4.
For Or4k52 (olfactory receptor family 4 subfamily K member 52) #3, the entry reads GFP, % of control 70.6; viability (ATP), % of control 84.8.
For Il33 (interleukin 33) #1, the entry reads GFP, % of control 104; viability (ATP), % of control 73.8.
After knock-down of Il33 (interleukin 33) #2, the record shows GFP, % of control 29.7; viability (ATP), % of control 22.1.
With knock-down of Il33 (interleukin 33) #3, the record shows GFP, % of control 77.3; viability (ATP), % of control 101.
Silencing of Rnase4 (ribonuclease, RNase A family 4) #1 gave: GFP, % of control 48; viability (ATP), % of control 69.5.
With knock-down of Rnase4 (ribonuclease, RNase A family 4) #2, the screen gave GFP, % of control 83.5; viability (ATP), % of control 88.6.
Against Rnase4 (ribonuclease, RNase A family 4) #3, the entry reads GFP, % of control 64.8; viability (ATP), % of control 70.8.
Elac1 (elaC ribonuclease Z 1) #1 gave GFP, % of control 108; viability (ATP), % of control 106.
With knock-down of Elac1 (elaC ribonuclease Z 1) #2, the screen gave GFP, % of control 100; viability (ATP), % of control 92.1.
After knock-down of Elac1 (elaC ribonuclease Z 1) #3, the record shows GFP, % of control 103; viability (ATP), % of control 127.
With knock-down of Rap1gap2 (RAP1 GTPase activating protein 2) #1, the record shows GFP, % of control 108; viability (ATP), % of control 96.9.
For Rap1gap2 (RAP1 GTPase activating protein 2) #2, the entry reads GFP, % of control 62.5; viability (ATP), % of control 93.7.
For Rap1gap2 (RAP1 GTPase activating protein 2) #3, the entry reads GFP, % of control 68; viability (ATP), % of control 67.
For Akr7a5 (aldo-keto reductase family 7, member A5) #1, the values are GFP, % of control 90.1; viability (ATP), % of control 57.
Akr7a5 (aldo-keto reductase family 7, member A5) #2 gave GFP, % of control 102; viability (ATP), % of control 63.
Against Akr7a5 (aldo-keto reductase family 7, member A5) #3 the deposit lists GFP, % of control 88.7; viability (ATP), % of control 76.7.
Against Csnk2a2 (casein kinase 2, alpha prime polypeptide), the entry reads GFP, % of control 63.8; viability (ATP), % of control 58.
For Glb1l2 (galactosidase, beta 1-like 2) #1, the values are GFP, % of control 66.4; viability (ATP), % of control 68.2.
Against Glb1l2 (galactosidase, beta 1-like 2) #2, the values are GFP, % of control 64.9; viability (ATP), % of control 86.5.
After knock-down of Glb1l2 (galactosidase, beta 1-like 2) #3, the record shows GFP, % of control 139 (active); viability (ATP), % of control 158.
After knock-down of Rcbtb2 #1, the record shows GFP, % of control 161 (active); viability (ATP), % of control 89.1.
With knock-down of Rcbtb2 #2, the screen gave GFP, % of control 93.4; viability (ATP), % of control 77.
Rcbtb2 #3 gave GFP, % of control 91.7; viability (ATP), % of control 69.2.
Depletion of Fzd5 (frizzled class receptor 5) #1 resulted in: GFP, % of control 89.6; viability (ATP), % of control 60.1.
For Fzd5 (frizzled class receptor 5) #2, the entry reads GFP, % of control 82.4; viability (ATP), % of control 73.
Against Tln2 (talin 2) #1, the entry reads GFP, % of control 90.2; viability (ATP), % of control 85.5.
Knock-down of Tln2 (talin 2) #2 resulted in: GFP, % of control 90; viability (ATP), % of control 78.
Against Gap43 (growth associated protein 43) #1, the values are GFP, % of control 44.8; viability (ATP), % of control 49.4.
For Gap43 (growth associated protein 43) #2, the entry reads GFP, % of control 107; viability (ATP), % of control 75.1.
After knock-down of Gap43 (growth associated protein 43) #3, the record shows GFP, % of control 86.8; viability (ATP), % of control 83.1.
Krcc1 (lysine-rich coiled-coil 1) #1 scored GFP, % of control 75.2; viability (ATP), % of control 57.
Krcc1 (lysine-rich coiled-coil 1) #2 scored GFP, % of control 55.8; viability (ATP), % of control 70.3.
Krcc1 (lysine-rich coiled-coil 1) #3 showed GFP, % of control 54; viability (ATP), % of control 89.2.
After knock-down of A330008L17Rik (RIKEN cDNA A330008L17 gene) #1, the screen gave GFP, % of control 77.2; viability (ATP), % of control 75.8.
Against A330008L17Rik (RIKEN cDNA A330008L17 gene) #2, the values are GFP, % of control 79.7; viability (ATP), % of control 48.7.
Against A330008L17Rik (RIKEN cDNA A330008L17 gene) #3, the values are GFP, % of control 76.9; viability (ATP), % of control 78.9.
